The results in this text go back to article PMC5941273, “DNA-binding miniproteins based on zinc fingers. Assessment of the interaction using nanopores† †Electronic supplementary information (ESI) available. See DOI: 10.1039/c7sc05441f”.

Protein sequences, listed by entry. Tags and fused reporters are not part of them. Lines headed by an entry give the natural chain unless they say otherwise; changes in a name come on top.
UniProt Q08605: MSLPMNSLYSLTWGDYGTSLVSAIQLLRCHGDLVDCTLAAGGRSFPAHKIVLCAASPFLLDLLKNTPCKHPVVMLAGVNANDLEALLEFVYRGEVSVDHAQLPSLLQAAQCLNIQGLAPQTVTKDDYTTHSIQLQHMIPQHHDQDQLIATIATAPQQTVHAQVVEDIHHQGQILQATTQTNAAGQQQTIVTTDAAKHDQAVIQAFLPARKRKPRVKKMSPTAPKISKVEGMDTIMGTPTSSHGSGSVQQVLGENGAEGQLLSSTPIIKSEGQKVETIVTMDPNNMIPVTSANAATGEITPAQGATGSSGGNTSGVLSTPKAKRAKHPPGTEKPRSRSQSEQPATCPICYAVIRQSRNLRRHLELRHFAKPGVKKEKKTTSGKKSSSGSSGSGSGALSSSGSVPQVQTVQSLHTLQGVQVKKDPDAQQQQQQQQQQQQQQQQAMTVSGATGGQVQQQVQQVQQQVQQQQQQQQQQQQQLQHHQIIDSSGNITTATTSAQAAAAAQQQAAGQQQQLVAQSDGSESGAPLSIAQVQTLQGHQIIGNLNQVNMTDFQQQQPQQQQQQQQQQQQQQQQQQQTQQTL

Series [1] deals with gaga-Hk (UniProt Q08605). Description: EMSA. The settings on record: Zn2+, EMSA: 18 mM Tris-HCl pH 7.5, 90 mM KCl, 1.8 mM MgCl2, 0.2 mM TCEP, 9% glycerol, 0.11 mg/mL BSA, 2.2% NP-40, 0.02 mM ZnCl2, 20 C, 75 nM DNA.
Series [2] deals with Hk-gaga (UniProt Q08605). Description: EMSA. Particulars: Zn2+, EMSA: 18 mM Tris-HCl pH 7.5, 90 mM KCl, 1.8 mM MgCl2, 0.2 mM TCEP, 9% glycerol, 0.11 mg/mL BSA, 2.2% NP-40, 0.02 mM ZnCl2, 20 C, 75 nM DNA. A general note: Mobility shift assays separate free from complexed probe on a gel.
A further series has as its target gaga-Hk-gaga (UniProt Q08605). The experiment in a line: EMSA. Particulars: Zn2+, EMSA: 18 mM Tris-HCl pH 7.5, 90 mM KCl, 1.8 mM MgCl2, 0.2 mM TCEP, 9% glycerol, 0.11 mg/mL BSA, 2.2% NP-40, 0.02 mM ZnCl2, 20 C, 75 nM DNA.
The target in series [3] is gaga-Hk (UniProt Q08605). Description: fluorescence anisotropy. The settings on record: 50 uM bp calf thymus DNA, Zn2+; FA: 20 mM Tris-HCl pH 7.5, 100 mM NaCl, 0.02 mM ZnCl2, 20 C, 25 nM DNA; label: 5'-TMR. For orientation: Fluorescence polarisation rises when a labelled molecule tumbles more slowly, as on binding a larger partner.
For series [4], the target named is Hk-gaga (UniProt Q08605). The experiment in a line: fluorescence anisotropy. The settings on record: 50 uM bp calf thymus DNA, Zn2+; FA: 20 mM Tris-HCl pH 7.5, 100 mM NaCl, 0.02 mM ZnCl2, 20 C, 25 nM DNA; label: 5'-TMR.

For at least one entry, the source does not settle the construct or the ends of the probe. For part of these data: A negative result means that nothing was seen under these conditions. The comparison behind a weaker result is the experiment's own reference, which may not be listed here.

Consider “CGCGTCATAATTCGCGACGC (double strand) [AT·cgc (= cat·AT·cgc)]”, for which the binding result with gaga-Hk [1] (up to 1000 nM), in the series with Hk-gaga [2] (up to 1000 nM) and with gaga-Hk-gaga (up to 1000 nM) was “no binding” throughout.
For “CGCGTCATAATTGAGAGCGC (double strand) [AT·GAG (= cat·AT·GAG)]”, the binding result in the series with gaga-Hk [1] is listed as “binds”; with Hk-gaga [2] it was “binds”; with gaga-Hk-gaga (1000 nM), “binds more weakly”.
For “CGCGTCATCAGCGAGAGCGC (double strand) [TMR-cg·GAG]”, the binding result with gaga-Hk [3] and with Hk-gaga [4] was “binds more weakly” in each case.
With “CGCGTCATCAGCGAGAGCGC (double strand) [cg·GAG]”, the binding result with gaga-Hk [1] and with Hk-gaga [2] was “binds more weakly” throughout.
In the case of “GAGCTCTCAATTGAGAGCGCG (double strand) [CTC·AT·GAG]”, in the series with gaga-Hk-gaga, the binding result is “binds”.
On the same count and under the same terms, as for “GGTTCTCTCGACCGAGAGTTGG (double strand) [CTC·gc·GAG]”, the entry is “binds more weakly”.
